One molecule from publication PMC13470446 can be followed below.

Results are given in words; binding and its absence hold for the method and conditions named. A result given as binding can be weak or reduced; the word gives no strength.

This assay has as its target microtubule polymers. The experiment in a line: co-sedimentation; microtubule pelleting assay; fraction of microtubule-bound Smc5 plotted against microtubule concentration, Kd by curve fitting to a hyperbola; 3 independent experiments; both purified.

B1: Smc5 hinge domain (residues 215–885) (domain or fragment, UniProt Q08204 215-885)
chain: LRELQGNEQSLQKDLDFKKAKIVHLRQESDKLRKSVESLRDFQNKKGEIELHSQLLPYVKVKDHKEKLNIYKEEYERAKANLRAILKDKKPFANTKKTLENQVEELTEKCSLKTDEFLKAKEKINEIFEKLNTIRDEVIKKKNQNEYYRGRTKKLQATIISTKEDFLRSQEILAQTHLPEKSVFEDIDIKRKEIINKEGEIRDLISEIDAKANAINHEMRSIQRQAESKTKSLTTTDKIGILNQDQDLKEVRDAVLMVREHPEMKDKILEPPIMTVSAINAQFAAYLAQCVDYNTSKALTVVDSDSYKLFANPILDKFKVNLRELSSADTTPPVPAETVRDLGFEGYLSDFITGDKRVMKMLCQTSKIHTIPVSRRELTPAQIKKLITPRPNGKILFKRIIHGNRLVDIKQSAYGSKQVFPTDVSIKQTNFYQGSIMSNEQKIRIENEIINLKNEYNDRKSTLDALSNQKSGYRHELSELASKNDDINREAHQLNEIRKKYTMRKSTIETLREKLDQLKREARKDVSQKIKDIDDQIQQLLLKQRHLLSKMASSMKSLKNCQKELISTQILQFEAQNMDVSMNDVIGFFNEREADLKSQYEDKKKFVKEMRDTPEFQSWMREIRSYDQDTKEKLNKVAEKYEEEGNFNLSFVQDVLDKLESEIAMVNHDES
With B1, the binding result is on record as “binds”.
